For some assays here: No signal at the amounts used counts as a negative. For some assays here: For at least one entry, the source does not settle the construct or the ends of the probe.
Experiments:
Test in all cases: FRET fluorescence recovery (displacement from Au NRs@PDA)
[1] = biological target: amyloid-beta fibril (AbF) (UniProt P05067); conditions: 20 nM AbF, no obvious recovery, 5'-HS-(CH2)6, QD-aptamer conjugates (in deionized water) with 0.5 mg/mL Au NRs@PDA stock (55 uL to 20 uL), 30 min quench, then 120 min with protein at room temperature, commercial protein, residues 672-711, single-stranded DNA
[2] = biological target: amyloid-beta monomer (AbM) (UniProt P05067); conditions: 20 nM AbM, no obvious recovery; 5'-HS-(CH2)6; QD-aptamer conjugates (in deionized water) with 0.5 mg/mL Au NRs@PDA stock (55 uL to 20 uL), 30 min quench, then 120 min with protein at room temperature; commercial protein; residues 672-711; label: QDs625 (CdSe/CdS/ZnS) via 5' thiol; single-stranded DNA
[3] = biological target: bovine serum albumin (BSA) (bovine) (UniProt P02769); conditions: 20 nM BSA, no obvious recovery; 5'-HS-(CH2)6; QD-aptamer conjugates (in deionized water) with 0.5 mg/mL Au NRs@PDA stock (55 uL to 20 uL), 30 min quench, then 120 min with protein at room temperature; commercial protein; label: QDs625 (CdSe/CdS/ZnS) via 5' thiol; single-stranded DNA
tau protein (human) = tau protein (human) (UniProt P10636); conditions: Au NRs@PDA quencher, LOD 20 pM (not a Kd); 5'-HS-(CH2)6; QD-aptamer conjugates (in deionized water) with 0.5 mg/mL Au NRs@PDA stock (55 uL to 20 uL), 30 min quench, then 120 min with protein at room temperature; commercial protein; label: QDs665 (CdSe/CdS/ZnS) via 5' thiol; single-stranded DNA

The chains behind the UniProt entries cited, without tags or fusion partners. Where a name states a change or a piece, a line headed by the entry shows the natural chain unless it says otherwise. Residues count along the entry.
UniProt P05067: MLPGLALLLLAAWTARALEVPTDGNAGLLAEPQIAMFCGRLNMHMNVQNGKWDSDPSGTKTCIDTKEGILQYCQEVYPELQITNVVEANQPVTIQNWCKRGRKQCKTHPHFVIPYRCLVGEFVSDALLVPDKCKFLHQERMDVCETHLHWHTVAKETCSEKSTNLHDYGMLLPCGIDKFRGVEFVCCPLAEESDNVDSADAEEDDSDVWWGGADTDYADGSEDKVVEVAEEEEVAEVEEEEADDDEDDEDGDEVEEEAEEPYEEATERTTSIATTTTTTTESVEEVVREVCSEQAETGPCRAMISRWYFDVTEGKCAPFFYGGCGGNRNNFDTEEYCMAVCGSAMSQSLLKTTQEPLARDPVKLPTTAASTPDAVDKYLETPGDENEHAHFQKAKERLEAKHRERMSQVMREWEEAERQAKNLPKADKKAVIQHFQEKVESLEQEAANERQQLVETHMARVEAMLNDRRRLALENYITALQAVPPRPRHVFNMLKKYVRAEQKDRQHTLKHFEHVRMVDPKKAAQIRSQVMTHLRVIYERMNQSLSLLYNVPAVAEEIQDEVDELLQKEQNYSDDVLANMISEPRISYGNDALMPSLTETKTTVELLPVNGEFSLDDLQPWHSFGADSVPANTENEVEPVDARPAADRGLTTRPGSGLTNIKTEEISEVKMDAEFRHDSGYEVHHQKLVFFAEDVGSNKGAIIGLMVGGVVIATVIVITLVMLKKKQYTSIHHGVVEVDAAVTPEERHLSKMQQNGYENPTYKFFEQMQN
UniProt P02769, 25-607: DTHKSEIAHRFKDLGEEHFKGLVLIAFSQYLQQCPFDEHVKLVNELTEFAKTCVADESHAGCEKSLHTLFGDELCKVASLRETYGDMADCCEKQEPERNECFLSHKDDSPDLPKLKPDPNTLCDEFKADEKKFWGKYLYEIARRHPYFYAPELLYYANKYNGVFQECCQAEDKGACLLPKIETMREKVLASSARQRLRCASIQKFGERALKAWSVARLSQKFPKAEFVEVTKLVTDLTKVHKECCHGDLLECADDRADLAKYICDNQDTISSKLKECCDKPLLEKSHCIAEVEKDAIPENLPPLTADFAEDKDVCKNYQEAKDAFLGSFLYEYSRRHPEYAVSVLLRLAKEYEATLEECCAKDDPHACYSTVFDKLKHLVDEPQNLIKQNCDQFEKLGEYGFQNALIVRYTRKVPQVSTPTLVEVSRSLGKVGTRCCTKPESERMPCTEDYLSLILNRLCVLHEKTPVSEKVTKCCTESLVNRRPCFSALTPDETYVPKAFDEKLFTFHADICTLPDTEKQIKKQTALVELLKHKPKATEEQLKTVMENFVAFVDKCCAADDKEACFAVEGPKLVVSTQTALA
UniProt P10636: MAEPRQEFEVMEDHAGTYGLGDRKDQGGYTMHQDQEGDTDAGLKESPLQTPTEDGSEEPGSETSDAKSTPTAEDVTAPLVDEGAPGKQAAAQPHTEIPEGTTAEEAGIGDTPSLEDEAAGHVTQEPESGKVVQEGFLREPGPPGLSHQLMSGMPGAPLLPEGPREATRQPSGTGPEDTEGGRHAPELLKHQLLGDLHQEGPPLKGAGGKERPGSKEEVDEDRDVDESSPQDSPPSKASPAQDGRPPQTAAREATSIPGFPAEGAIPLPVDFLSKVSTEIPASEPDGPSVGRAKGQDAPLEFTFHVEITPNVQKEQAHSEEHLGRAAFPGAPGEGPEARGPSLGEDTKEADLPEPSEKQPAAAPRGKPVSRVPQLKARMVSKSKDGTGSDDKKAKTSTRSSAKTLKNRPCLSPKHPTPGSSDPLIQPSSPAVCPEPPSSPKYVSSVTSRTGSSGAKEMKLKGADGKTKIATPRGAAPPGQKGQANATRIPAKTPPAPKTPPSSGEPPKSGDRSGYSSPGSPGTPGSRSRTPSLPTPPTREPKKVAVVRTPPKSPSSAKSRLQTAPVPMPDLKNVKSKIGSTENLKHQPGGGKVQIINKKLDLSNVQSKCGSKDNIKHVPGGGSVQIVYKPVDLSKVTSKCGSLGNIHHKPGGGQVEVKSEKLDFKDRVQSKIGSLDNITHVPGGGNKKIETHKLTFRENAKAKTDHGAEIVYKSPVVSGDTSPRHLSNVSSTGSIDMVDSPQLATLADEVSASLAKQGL

Does GCCTGTGTTGGGGCGGGTGCG [AbO aptamer] bind ([1]; label: QDs625 (CdSe/CdS/ZnS) via 5' thiol)?
Result: no binding

Does GCCTGTGTTGGGGCGGGTGCG [AbO aptamer] bind [2]?
Result: no binding

Does GCCTGTGTTGGGGCGGGTGCG [AbO aptamer] bind [3]?
Result: no binding

Does GCGGAGCGTGGCAGG [tau aptamer] bind ([1]; label: QDs665 (CdSe/CdS/ZnS) via 5' thiol)?
Result: no binding

Does GCGGAGCGTGGCAGG [tau aptamer] bind (tau protein (human))?
Result: binds
